PubChem BioAssay AID2685 (National Center for Advancing Translational Sciences (NCATS), 2010)
The list shows a part of the results. Further columns of the screen follow, without active or inactive calls. The list favours compounds with an active or inconclusive main result. The note in brackets gives the kind of curve behind each potency; many fits are weak.

Test: qHTS Assay for Lipid Storage Modulators in Drosophila S3 Cells;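 on cell number change: cells counted by Cell Tracker Red CMTPX staining in the red channel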
Details: BODIPY lipid droplet fluorescence, 18-24 h; for cell number change: measured here: cell count max response, cells fed with added oleic acid
Outline: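 Drosophila S3 cells got compounds at several concentrations plus oleic acid (400 uM solution). Laser-scanning cytometry with 488 nm excitation read lipid droplets at 500-530 nm and cells at 575-640 nm. Percent activity was relative to 20 uM Triacsin C.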

[1] = measured here: cell number channel AC50, cells fed with added oleic acid
[2] = measured here: lipid fluorescence (Fed channel) AC50, cells fed with added oleic acid

| SMILES | cell number change | AC50 [1] | AC50 [2] |
| --- | --- | --- | --- |
| CCOc1ccc2nc(NC(=O)C3CCCN(S(=O)(=O)c4cccs4)C3)sc2c1 (centres undefined) | -62.7% | 18.4 µM [falling, partial curve] | 9.2 µM [falling, partial curve] |
| COc1ccc(-n2c(O)c(C=NCc3ccccn3)c3ccccc3c2=O)c(OC)c1 | 11.3% | – | 0.651 µM [rising, full curve, poor fit] |
| CCOc1ccc(NC(=O)CN(C)C(=O)c2ccc(C)o2)cc1OCC | 38.3% | 3.26 µM [rising, partial curve] | 29.1 µM [rising, single point] |
| CCCc1ccc(S(=O)(=O)N2CCN(C(C)C(=O)NC3CCCC3)CC2)cc1 (centres undefined) | 201% | 29.1 µM [rising, single point] | – |
| Cc1cc(C)c2[nH]c(=O)c(CN(Cc3ccc4c(c3)OCO4)Cc3nnnn3C3CCCC3)cc2c1 | -12.5% | 0.461 µM [rising, full curve, poor fit] | 16.4 µM [rising, partial curve] |
| CC(OC(=O)CN1C(=O)NC2(CCCCC2C)C1=O)c1ccccc1 (centres undefined) | 8.96% | 0.00517 µM [falling, full curve, poor fit] | 0.0206 µM [falling, full curve] |
| COc1cccc(N2CCN(C(=O)c3oc4ccccc4c3NC(=O)CCc3cc(OC)no3)CC2)c1 | -5.67% | – | – |
| CC(=O)C1=C(O)C(=O)N(c2cccnc2)C1c1cccc([N+](=O)[O-])c1 (centres undefined) | -14.3% | – | 18.4 µM [falling, single point] |
| COc1cc(Cl)c(S(=O)(=O)N2CCOCC2)cc1Cl | – | – | 0.651 µM [falling, full curve] |
| O=C(Nc1ccc([N+](=O)[O-])c(NC(=O)C2CCCO2)c1)C1CCCO1 (centres undefined) | 39.2% | 23.1 µM [rising, single point] | 2.31 µM [falling, single point] |
| CC(C)NC1=C(Cl)C(=O)c2ccccc2C1=O | -11.1% | 4.11 µM [falling, single point] | 2.31 µM [rising, single point] |
| CCOc1cc(C(=O)O)ccc1OCCOc1ccccc1 | 8.97% | – | – |
| O=C(COC(=O)c1ccco1)Nc1ccc([N+](=O)[O-])cc1Cl | -3.57% | 6.51 µM [falling, single point] | – |
| COc1cccc(NC(=O)CN(C)S(=O)(=O)c2ccc(C)cc2)c1 | 7.59% | – | 1.3 µM [rising, full curve] |
| COC(=O)[C@H](C)[C@H]1C[C@]1(C)[C@H](NC(=O)OCc1ccccc1)c1ccccc1 | 12.8% | – | 29.1 µM [rising, single point] |
| O=C(c1cccc2ccccc12)N1CCN(Cc2ccccc2F)CC1 | – | – | 2.06 µM [falling, partial curve] |
| Cn1nc(C(F)(F)F)c(-c2ccc(Br)cc2)c1NC(=O)C1CCC1C(=O)O (centres undefined) | -37.8% | 7.31 µM [falling, full curve, poor fit] | 2.06 µM [falling, partial curve] |
| CCSc1nnc(-c2cccnc2)n1-c1ccc(Cl)c(C)c1 | 12% | – | 0.103 µM [rising, full curve, poor fit] |
| CCN(CC)S(=O)(=O)c1ccc(N2CCOCC2)c(NS(=O)(=O)c2cccs2)c1 | 0.711% | 0.517 µM [rising, full curve] | 8.2 µM [falling, partial curve] |
| O=C(Nc1ccc([N+](=O)[O-])cc1Br)c1cc2ccccc2nc1Cl | 11% | – | 0.651 µM [rising, full curve] |
| CC1(C(=O)OCC(=O)Nc2ccc(C(N)=O)cc2)CC1(Cl)Cl (centres undefined) | 49.6% | 29.1 µM [rising, single point] | 0.651 µM [falling, partial curve, poor fit] |
| COc1ccc(Nc2ccc(C(N)=O)cc2[N+](=O)[O-])cc1 | 12.1% | 0.184 µM [rising, full curve, poor fit] | 6.51 µM [rising, single point] |
| CCNc1nc(NCC)nc(Oc2ccc(OCc3ccccc3)nn2)n1 | 44% | 29.1 µM [rising, partial curve, poor fit] | 29.1 µM [rising, single point] |
| O=C1C=C(c2ccccc2)C[C@@H](c2ccc(Cl)cc2)C1 | -15.2% | – | 29.1 µM [rising, single point] |
| O=C(CCl)Nc1ccc(-c2ccccc2)cc1 | -34.4% | 0.651 µM [falling, full curve] | 0.58 µM [falling, full curve] |
| COc1cccc(/C=C2\Oc3cc(OCC(=O)N4CCC[C@H]4C(=O)O)ccc3C2=O)c1 | 23.3% | – | 29.1 µM [rising, single point] |
| CCn1c(O)c(N=NC(=O)c2cccc(S(=O)(=O)N3CCCCC3)c2)c2ccccc21 | -15.6% | – | 29.1 µM [falling, single point] |

Structural class: those above containing a thiophene ring, fused or not.

| SMILES | cell number change | AC50 [1] | AC50 [2] |
| --- | --- | --- | --- |
| CCOc1ccc2nc(NC(=O)C3CCCN(S(=O)(=O)c4cccs4)C3)sc2c1 (centres undefined) | -62.7% | 18.4 µM [falling, partial curve] | 9.2 µM [falling, partial curve] |
| CCN(CC)S(=O)(=O)c1ccc(N2CCOCC2)c(NS(=O)(=O)c2cccs2)c1 | 0.711% | 0.517 µM [rising, full curve] | 8.2 µM [falling, partial curve] |

The list goes on.

| SMILES | cell number change | AC50 [1] | AC50 [2] |
| --- | --- | --- | --- |
| Cc1cc(-c2[nH]nc3c2C(c2cccc(O)c2)C(C#N)=C(N)O3)c(C)s1 (centres undefined) | 4.2% | – | 2.91 µM [rising, full curve, poor fit] |
| COC(=O)C1CCN(C(=O)CN2C(=O)NC(CCc3ccccc3)C2=O)CC1 (centres undefined) | 9.69% | – | 0.184 µM [falling, full curve, poor fit] |
| Nc1nc(SCC(=O)Nc2cc(-c3ccccc3)nn2-c2ccccc2)n[nH]1 | – | 0.184 µM [rising, full curve] | 0.411 µM [rising, full curve] |
| COc1ccc(CCNC(=O)c2ccc(N(C)S(=O)(=O)c3ccc(C)cc3)cc2)cc1OC | -49.2% | 10.3 µM [falling, partial curve] | 10.3 µM [falling, partial curve] |
| CCCc1nnc(SCC(=O)Nc2cc(C)on2)n1CCOC | – | – | 5.8 µM [rising, partial curve, poor fit] |
| CCN(CC)CCCN=Cc1c(O)n(-c2ccc(C)cc2)c(=O)c2ccccc12 | 1.49% | – | 0.731 µM [falling, full curve, poor fit] |
| Cc1cccc(Oc2ccccc2NC(=O)CN2C(=O)NC3(CCCC3)C2=O)c1 | 20.9% | – | – |
| CC(=O)Nc1ccc(N2C(=O)CSC2c2ccccc2[N+](=O)[O-])cc1 (centres undefined) | -28.5% | 0.00731 µM [falling, full curve, poor fit] | – |
| CS(=O)(=O)N(CC(=O)N1CCc2ccccc2C1)c1cccc(F)c1 | 16.8% | 0.326 µM [rising, full curve, poor fit] | 0.259 µM [falling, full curve] |
| CCN(CC)CCN(C(=O)c1ccc(S(=O)(=O)N2CCOCC2)cc1)c1nc2cc3c(cc2s1)OCCO3 | 24% | – | 16.4 µM [rising, partial curve, poor fit] |
| CC1CCCCN1Cc1ccc(N(C)C)cc1 (centres undefined) | -32.2% | 29.1 µM [falling, single point] | 16.4 µM [falling, single point] |
| CCC(C)[C@H](NC(=O)NCc1ccco1)C(=O)OC (some centres undefined) | -44.1% | 23.1 µM [falling, single point] | 29.1 µM [falling, single point] |
| O=c1c2ccccc2sn1-c1cc(S(=O)(=O)N2CCOCC2)ccc1N1CCCC1 | -88% | 7.31 µM [falling, partial curve] | – |
| COc1cccc(C(=O)NCCS(=O)(=O)NCc2ccccn2)c1 | 36.7% | 29.1 µM [rising, single point] | 29.1 µM [rising, single point] |
| O=C(Cn1ccc(C(F)(F)F)n1)NNC(=O)c1ccco1 | 16.4% | – | 6.51 µM [rising, partial curve, poor fit] |
| CC(C)Cn1c(N)c(C(=O)NCC2CCCO2)c2nc3ccccc3nc21 (centres undefined) | -37.3% | 13 µM [falling, partial curve] | 16.4 µM [falling, partial curve] |
| Cc1ccc(N(CCC(=O)O)S(=O)(=O)c2ccccc2)cc1 | -5.8% | – | 2.06 µM [rising, partial curve, poor fit] |
| CCCCCc1c(C)nc(N2CCN(Cc3ccc4c(c3)OCO4)CC2)[nH]c1=O | -25% | – | – |
| Oc1ccc(C[C@@H]2CNCCN2CCC23CC4CC(CC(C4)C2)C3)cc1 | -25.3% | 0.184 µM [falling, full curve, poor fit] | 0.184 µM [falling, full curve, poor fit] |
| Cc1c(C(=O)c2cccc([N+](=O)[O-])c2)c2ccccn2c1CCC#N | 9.49% | – | 0.651 µM [rising, single point] |
| COc1ccc(OC)c(CN(CCN2CCOCC2)C(=O)Nc2ccccc2)c1 | – | – | 0.517 µM [rising, full curve, poor fit] |
| CCOc1ccc(CCNC(=O)Nc2ccccc2C)cc1OCC | -38% | 18.4 µM [falling, single point] | – |
| Cc1c(C(=O)Nc2ccccc2C(=O)N2CCCC2)cccc1[N+](=O)[O-] | – | 6.51 µM [falling, single point] | – |
| CCCCOC(=O)C1=C(C)NC2=C(C(=O)CCC2)C1c1cc(OC)ccc1OC (centres undefined) | 5.36% | – | 0.058 µM [rising, full curve] |
| CCN(CC)S(=O)(=O)c1ccc(O)c(C(=O)OCC(=O)Nc2ccc(OC(F)(F)F)cc2)c1 | – | 5.8 µM [rising, single point] | – |
| COc1cc2c(cc1NC(=O)/C=C/c1ccc([N+](=O)[O-])cc1)oc1ccccc12 | -1.58% | – | – |
